Reference: patent publication US20210388260A1, “USE OF A SUBSTITUTED OR UNSUBSTITUTED POLYCYCLIC AROMATIC HYDROCARBON COMPOUND FOR HIGH-RESOLUTION MICROSCOPY” (Max-Planck-Gesellschaft zur Förderung der Wissenschaften e.V, priority 2018, published 2021)

Assay: Blinking properties of different compounds (duty cycle, photons per switching event, blinking time)
Assay type: physicochemical

With `Cc1cc(C)c(-c2c3cccc4c5ccc6ccc7c(-c8c(C)cc(C)cc8C)c8cccc9c%10ccc%11ccc2c2c%11c%10c%10c(c89)c7c6c5c%10c2c34)c(C)c1` [DBOV-Mes, 6,14-dimesityldibenzo[hi,st]ovalene] the Blinking time (Air) was 108 ms, the “Detected photons per switching event” value (Air) was 5.570 and the Duty cycle (Air) was 4.7 ×10^−4. For the same compound, the Blinking time (DPBS) was 87 ms, the “Detected photons per switching event” value (DPBS) was 4.918 and the Duty cycle (DPBS) was 1.3 ×10^−4. For the same compound, the Blinking time (PS (polystyrene)) was 54 ms, the “Detected photons per switching event” value (PS (polystyrene)) was 4.902 and the Duty cycle (PS (polystyrene)) was 8 ×10^−4.
